At least one compound was matched to its structure with a doubt left.
Key:
hESCs (hESCyt-25) = assay: Q-PCR gene expression assay of marker genes in differentiating hESCs; assay type: cell-based, human; conditions: FIG. 7A
Procedure: In the following experiments, real-time quantitative RT-PCR (Q-PCR) was the primary assay used for screening the effects of various treatments on HESC differentiation. In particular, real-time measurements of gene expression were analyzed for multiple marker genes at multiple time points by Q-PCR. Marker genes characteristic of the desired as well as undesired cell types were evaluated to gain a better understanding of the overall dynamics of the cellular populations. The strength of Q-PCR analysis includes its extreme sensitivity and relative ease of developing the necessary markers, as the genome sequence is readily available. […] Additionally, Q-PCR provides a mechanism by which to evaluate the success of a differentiation protocol in a quantitative format at semi-high throughput scales of analysis.
The approach taken here was to perform relative quantitation using SYBR Green chemistry on a Rotor Gene 3000 instrument (Corbett Research) and a two-step RT-PCR format. […]
Primers were designed to lie over exon-exon boundaries or span introns of at least 800 bp when possible, as this has been empirically determined to eliminate amplification from contaminating genomic DNA. […]
To generate PCR template, total RNA was isolated using RNeasy (Qiagen) and quantitated using RiboGreen (Molecular Probes). […] Fluorescence data was collected during the last 15 seconds of each extension phase. […]

EBs of hESCyt-25 = assay: Retinoic acid treatment of EBs in suspension (visceral endoderm induction); assay type: cell-based, human; conditions: by 54 hours of treatment

Structure (SMILES): CC1=C(/C=C/C(C)=C/C=C/C(C)=C/C(=O)O)C(C)(C)CCC1 [retinoic acid, reference compound]
- SOX17 gene expression relative to the undifferentiated control media (SR20) (hESCs (hESCyt-25)): strongly suppresses
- expression of AFP and SOX7 (markers of VE) (EBs of hESCyt-25): high levels
